# Publication PMC9469100, “Turning Nonselective Inhibitors of Type I Protein Arginine Methyltransferases into Potent and Selective Inhibitors of Protein Arginine Methyltransferase 4 through a Deconstruction–Reconstruction and Fragment-Growing Approach” (Journal of Medicinal Chemistry, 2022)
# Assay: Parallel artificial membrane permeability assay (PAMPA)
# Format: in vitro ADME
# Conditions: phosphate buffer pH 7.4, donor 0.2 mM, 24 h at room temperature
# Method: A donor solution (0.2 mM) was prepared by diluting 20 mM dimethyl sulfoxide (DMSO) compound stock solution using phosphate buffer (pH 7.4, 0.01 M). Filters were coated with 5 μL of a 1% (w/v) dodecane solution of L-α-phosphatidylcholine. Donor solution (150 μL) was added to each well of the filter plate. To each well of the acceptor plate, 300 μL of solution (5% DMSO in phosphate buffer) was added. Selected compounds were tested in triplicate; propranolol and furosemide were used as positive and negative controls. The sandwich was incubated for 24 h at room temperature under gentle shaking. After the incubation time, the sandwich plates were separated, and 250 μL of the acceptor plate was transferred to a UV quartz microtiter plate and measured by UV spectroscopy, using a Multiskan GO microplate spectrophotometer (Thermo Fisher Scientific) at 250–500 nm at a step of 5 nm. Reference solutions (250 μL) were prepared diluting the sample stock solutions to the same concentration as that with no membrane barrier. The apparent permeability value Papp is determined from the ratio r of the absorbance of the compound found in the acceptor chamber divided by the theoretical equilibrium absorbance (determined independently), the Faller modification[133] of the Sugano equation:[134] [drawing 1] […]
smiles,measurement,value
"NS(=O)(=O)c1cc(C(=O)O)c(NCc2ccco2)cc1Cl [furosemide, reference compound]","Papp at 24 h, 0.2 mM",0.034 ×10⁻⁶ cm/s
